Reference: PubChem BioAssay AID504467 (National Center for Advancing Translational Sciences (NCATS), 2011)
Out of some 330,000 compounds screened, about 7,700 (2.3%) were called active. The shares of active, inactive and inconclusive entries below differ from those in the screen. The call rests on the fitted dose curve; in most records, active means well fitted inhibition curve with a large enough effect; inconclusive means small, poorly fitted or top-dose-only effect, or effect the other way; inactive means flat fitted curve, though single readings scatter. Potencies of inconclusive entries are doubtful fits and often do not repeat.

Experiment: qHTS screen for small molecules that inhibit ELG1-dependent DNA repair in human embryonic kidney (HEK293T) cells expressing luciferase-tagged ELG1; further: nearly all actives have a fitted effect of over 55% in size
Conditions: HEK293T ELG1-luciferase reporter, luminescence, 16 h, DNA damage induced by 5-fluorouridine; activity change, negative = inhibition: at 46.1 µM (top of the series)
Procedure, shortened: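 5-Fluorouridine DNA damage + compound/DMSO, 2,000 cells/well, 16 h, 37 °C/5% CO2. ONE-Glo, 30 min RT, luminescence. Readout = decrease in reporter signal.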
On the % scale 0 is the no-effect control and ±100 the full control effect; potency means the concentration at half of the fitted maximal effect.

Structure (SMILES)	Potency	activity change, negative = inhibition
Cc1cc(C(=O)NNc2c(Cl)cccc2Cl)n(C(C)(C)C)n1	inconclusive: 23.1 µM [inhibitor, single point]	
COc1cc(/C=C(/C#N)c2ccccc2)ccc1Oc1ccc([N+](=O)[O-])cn1	inconclusive: 5.8 µM [inhibitor, partial curve, poor fit]	
CCC(=O)c1ccc(OCC(O)CN2CCc3ccccc3C2)cc1 (stereo unspecified)	inconclusive: 35.5 µM [activator, single point]	
Cc1nn(CC(=O)Nc2cccc(C(F)(F)F)c2)c(=O)c2cccn12		inactive: 9.05%
CC(C)CC(NC(=O)C1CCC(C)CC1)C(=O)Nc1ccccn1 (stereo unspecified)	inconclusive: 18.4 µM [activator, partial curve]	
Nc1cccc(Nc2ccccc2)c1		inactive: 15.2%
CCOC(=O)C1=NN(C(=O)c2ccc(C)cc2)C(O)(c2ccc(Cl)cc2)C1 (stereo unspecified)		inactive: 9.97%
NS(=O)(=O)c1ccc(CCNC(=O)Nc2ccc(Cl)cc2)cc1	inconclusive: 18.4 µM [inhibitor, single point]	
O=[N+]([O-])c1ccccc1/C=C/C=N/n1c(-c2ccco2)n[nH]c1=S		inactive: 12.7%
O=C(c1ccco1)N1CCN(c2ncnc3c2[nH]c2ccccc23)CC1	inconclusive: 29.1 µM [inhibitor, single point]	
Cc1onc(-c2ccccc2Cl)c1C(=O)NCCn1c(C)cc2ccccc21		inactive: -23.6%
COc1cc(CNC2CCCCCCC2)cc(Cl)c1OC		inactive: -20.3%
Cc1ccc(S(=O)(=O)NCCC(=O)Nc2ccc(C)cc2C(=O)c2ccccc2)cc1	inconclusive: 2.31 µM [inhibitor, partial curve, poor fit]	
COc1ccc(CNC(=O)CN(C)Cc2ccc(C(C)(C)C)cc2)cc1	inconclusive: 29.1 µM [inhibitor, partial curve, poor fit]	
Cc1n[nH]c(=S)n1/N=C/c1ccc(OCc2ccc(Cl)cc2Cl)cc1	inconclusive: 16.4 µM [activator, single point]	
CC(CSc1nnnn1-c1ccccc1)Cn1c(N2CCCC2)nc2c1c(=O)[nH]c(=O)n2C (stereo unspecified)	inconclusive: 20.6 µM [inhibitor, partial curve]	
O=c1cc(-c2ccccc2)[nH]c2nc3ccccc3n12	inconclusive: 2.31 µM [activator, partial curve]	
COc1ccc(-c2noc(N3CCC(C(=O)Nc4ccccc4Cl)CC3)n2)cc1	inconclusive: 13 µM [inhibitor, partial curve]	
O=C(Nc1ccc(NC(=O)c2cccs2)cc1)c1ccc2c(c1)OCO2	inconclusive: 11.6 µM [activator, partial curve, poor fit]	
COc1ccc(CCNCC(O)COc2ccc(OC)cc2C(C)(C)C)cc1 (stereo unspecified)		inactive: -16.9%
C[C@H]1CN([C@@H](C)CO)C(=O)c2cc(NC(=O)c3ccncc3)ccc2O[C@H]1CN(C)Cc1ccc(C(=O)O)cc1		inactive: 12.1%
O=C(ON=C1CCN(S(=O)(=O)c2ccccc2)CC1)c1ccccc1	inconclusive: 20 µM [activator, single point]	
COc1ccc(-c2noc(CCCC(=O)NCC3CCCO3)n2)cc1 (stereo unspecified)		inactive: 1.39%

Structure (SMILES)	Potency	activity change, negative = inhibition
Cc1noc(C)c1CSCC(=O)Nc1cc(S(=O)(=O)N2CCOCC2)ccc1OC(C)C	inconclusive: 25.9 µM [inhibitor, partial curve, poor fit]	
O=C(Cn1cnc2ccccc21)Nc1ccc(SC(F)F)cc1	active: 2.06 µM	
O=C(NCC(=O)N1CCCCCCC1)c1ccc(Br)o1	inconclusive: 3.26 µM [activator, single point]	
COc1ccccc1Nc1c2c(nc3ccccc13)CCC2	inconclusive: 7.3 µM [inhibitor, partial curve]	
COc1ccc(C)cc1NC(=O)c1nn(-c2ccccc2)cc1OC	inconclusive: 25.9 µM [inhibitor, single point]	
CC1=NN(c2nc3ccccc3[nH]2)C(=O)C1Cc1ccccc1 (stereo unspecified)	inconclusive: 25.9 µM [activator, single point]	
CC(C)c1nnc(NC(=O)c2nc(S(=O)(=O)Cc3ccccc3F)ncc2Cl)s1	inconclusive: 29.1 µM [inhibitor, single point]	
COc1ccccc1C(OC(=O)c1cccs1)C(=O)NCc1ccco1 (stereo unspecified)		inactive: -2.2%
CCOc1ccc(-c2cccc(NC(=O)COc3ccc(Cl)cc3)c2)nn1		inactive: -1.61%
COc1cc(C(=O)OCC(=O)NC(=O)NC2CCCCC2)cc(Cl)c1OC		inactive: 2.35%
CCOC(=O)c1c(NC(=O)COc2cccc3c2CCN(Cc2ccc(F)cc2)C3=O)sc2c1CCC2		inactive: -4.56%
Cc1ccc(NC(=O)CNCc2ccccc2)c(Br)c1	inconclusive: 14.6 µM [activator, partial curve]	
CCOC(=O)C1CCCN(C(=O)c2cc(CN3C(=O)c4ccccc4C3=O)ccc2OC)C1 (stereo unspecified)		inactive: 12.6%
COCC(=O)Nc1nc(-c2ccccc2)c(C)s1		inactive: 3.01%
CCOc1cc(/C=N/NC(=O)c2ccc(-c3csc(Nc4ccc(C)cc4)n3)cc2)ccc1OCC(=O)O	inconclusive: 2.91 µM [activator, single point]	
CC(=O)c1sc(NC(=O)COc2ccccc2)nc1C	inconclusive: 23.1 µM [activator, single point]	
O=C(Nc1nnc(SCc2ccc(F)cc2)s1)c1cccnc1Cl		inactive: -1.32%
CCOC(=O)[C@@H]1[C@H]2COc3cc(OC)ccc3[C@@H]2N2C(=O)N(c3cccc(F)c3)C(=O)[C@]12C	inconclusive: 1.83 µM [activator, full curve]	
COCCSc1ccccc1C(=O)Nc1cc(C)on1	inconclusive: 18.4 µM [inhibitor, single point]	
O=C(NCCc1ccc(Cl)cc1)c1cc2ccccn2n1		inactive: 12.9%
N#Cc1ncn(-c2ccc(Oc3ccccc3)cc2)c1N	inconclusive: 32.6 µM [inhibitor, partial curve, poor fit]	
CCOC(=O)C1(Cc2ccccc2)CCN(Cc2cccc(OC)c2O)CC1	inconclusive: 16.4 µM [inhibitor, partial curve]	
Cc1cc([N+](=O)[O-])ccc1-c1ccc(C2Nc3ccccc3C(=O)N2O)o1 (stereo unspecified)	inconclusive: 1.16 µM [inhibitor, full curve]	

3 neighbouring entries already listed, quoted:
Structure (SMILES)	Potency	activity change, negative = inhibition
Cc1ccc(NC(=O)CNCc2ccccc2)c(Br)c1	inconclusive: 14.6 µM [activator, partial curve]	
CCOC(=O)C1CCCN(C(=O)c2cc(CN3C(=O)c4ccccc4C3=O)ccc2OC)C1 (stereo unspecified)		inactive: 12.6%
COCC(=O)Nc1nc(-c2ccccc2)c(C)s1		inactive: 3.01%
